Patent US20230002825

Protein sequences, listed by entry. Tags and fused reporters are not part of them. Residues count along the entry.
UniProt Q8WYQ5, 285-478: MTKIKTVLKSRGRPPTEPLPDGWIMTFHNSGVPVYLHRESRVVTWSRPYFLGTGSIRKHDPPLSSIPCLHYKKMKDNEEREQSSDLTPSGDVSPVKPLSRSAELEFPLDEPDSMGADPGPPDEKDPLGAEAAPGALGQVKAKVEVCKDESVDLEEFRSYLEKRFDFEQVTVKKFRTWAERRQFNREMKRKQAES

The sequences below were run against DGCR8 Rhed domain (RNA-binding heme domain, heme-bound dimer) (Homo sapiens) (UniProt Q8WYQ5) (assay: EMSA). Settings: range over all eight RNAs; 150 mM NaCl, 20 mM Tris pH 8.0, tRNA, heparin, RT; purified recombinant protein; label: 32P (alpha-32P-ATP body label).
“GGUGACUCCAGGUCCUGUGUGUUACCUAGAAAUAAGCACUGGACUUGGAGUCACC [pri-miR-378a apical stem-loop fragment]”: binds.
“GGUAUGCAUAUACUUCUUUGAGGAUCUGGCCUAAAGAGGUAUAGGGCAUGCC [pri-miR-202 apical stem-loop fragment]”: binds.
“GGUCUCUUCCCAGAUUUCCCAAAGUUGGGAAAAGCUGGGUUGAGACC [pri-miR-320b-2 apical stem-loop fragment]”: binds.
“GGCCCGGGUUAUACCUGAUGCUCACGUAUAAGACGAGCC [pri-miR-208a apical stem-loop fragment]”: binds.
“GGUUUGCAUUUCAGCGUAUAUAUGUAUAUGUGGCUGUGCAAAUCC [pri-miR-19b-2 apical stem-loop fragment]”: binds.
“GGUUCACGCAUUUGCUUUACUUGCAAUGAUUAUACAACC [pri-miR-300 apical stem-loop fragment]”: binds.
“GGCAGUGUAUUGCUAGCGGCUGUUAAUGAUUUUAACAGUUGCUAGUUGCACUCC [pri-miR-449c apical stem-loop fragment]”: binds.

The exact form of at least one protein or probe is not confirmed.
